Measurements reported in PubChem BioAssay AID602196 (INSERM, 2012).
The whole screen tested about 23,000 reagents; below is an unselected part. Of all reagents, 455 (2%) are marked active. 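Active includes both protection and sensitisation; some change values fall well beyond the stated -50 to +50 range.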 Entries without a mark were called inactive. Further read-outs or replicates are left out here. The record does not give: the amount of reagent.

Purpose: 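Genes whose knock-down alters cisplatin killing of lung cancer cells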
Cell system: human A549 lung cancer cells
Reagent: siRNA pair against human genes
Time to read-out: 48 h transfection before cisplatin; time from cisplatin to read-out not stated
Treatment: cisplatin at a dose killing half of control-siRNA cells; exact dose and duration not given
Detection: 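Cisplatin cell death as a shift from the 50% death seen with control siRNA; siRNAs toxic or growth-blocking alone scored 0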
Scale: two-siRNA summed score (-2 to +2): higher = both siRNAs protect from cisplatin killing; -2 means both sensitise; mean protection from cisplatin (shift in death): higher = protection from cisplatin killing
Call rule: 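siRNAs harmful alone (LDH or WST-1) get 0; others get +1 for less and -1 for more cisplatin killing; genes are active when the two siRNAs give the same sign, summing to ±2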
Calls: active = both siRNAs shift cisplatin killing the same way; inactive = no consistent shift, or siRNA harmful alone

For LOC441400, what was measured?
two-siRNA summed score (-2 to +2): 0; mean protection from cisplatin (shift in death) (%): 2

For RAVER1, how do the results read?
two-siRNA summed score (-2 to +2): 1; mean protection from cisplatin (shift in death) (%): 8.1

How did the screen score PRAME?
two-siRNA summed score (-2 to +2): 0; mean protection from cisplatin (shift in death) (%): 2.3

Which result is listed for ARID1A?
two-siRNA summed score (-2 to +2): 0; mean protection from cisplatin (shift in death) (%): 1.2

With LRFN1, what does the deposit list?
two-siRNA summed score (-2 to +2): 0; mean protection from cisplatin (shift in death) (%): 14.4

With LOC441171, how do the results read?
two-siRNA summed score (-2 to +2): 0; mean protection from cisplatin (shift in death) (%): 4.7

How did the screen score YIPF1?
two-siRNA summed score (-2 to +2): 0; mean protection from cisplatin (shift in death) (%): -4

With TIMMDC1, what was measured?
two-siRNA summed score (-2 to +2): 0; mean protection from cisplatin (shift in death) (%): 1.2

Which result is listed for RERG?
two-siRNA summed score (-2 to +2): 1; mean protection from cisplatin (shift in death) (%): 12.7

What did the screen give for ORC5?
two-siRNA summed score (-2 to +2): 0; mean protection from cisplatin (shift in death) (%): -16.2

How did the screen score PALM?
two-siRNA summed score (-2 to +2): 0; mean protection from cisplatin (shift in death) (%): 1.2

How did the screen score DSTN?
two-siRNA summed score (-2 to +2): 1; mean protection from cisplatin (shift in death) (%): 1.3

Part of the list above in another layout.
| gene | two-siRNA summed score (-2 to +2) | mean protection from cisplatin (shift in death) (%) |
| --- | --- | --- |
| RAVER1 | 1 | 8.1 |
| PRAME | 0 | 2.3 |
